Values quoted from earlier work in patent US12565499B2, “Compounds and methods” (INTRA-CELLULAR THERAPIES, INC., priority 2012, dated 2026).
For at least one compound, name, drawing or mass did not settle the structure.

Tested on: mice
Details: chronic administration; Berton et al., Science (2006) 311:864-868

CNC1=Nc2ccc(Cl)cc2C(c2ccccc2)=[N+]([O-])C1 [chlordiazepoxide]
reversal of isolation behavior in the social defeat/resident intruder model: Neither acute administration of anti-depressant medications or chronic treatment with anti-anxiety medications, like chlordiazepoxide, are similarly effective
